Measured values reported in patent US7045591B2 (Hoffmann-La Roche Inc., priority 2000, dated 2006).

Assay: general procedure: Fmoc solid-phase peptide synthesis; Fmoc-Linker-BHA resin (Rink linker on benzhydrylamine resin) or Wang resin; HBTU and DIC preferred, with HOBT
Settings: whole synthesis

Row | Substance | isolated yield
1 | Penta-cyclo(Asp-Lys)-Asp-3-MeAppc-(D)Phe-Arg-Trp-Lys-NH2 | 14%
2 | Penta-cyclo(Asp-Lys)-Asp-4-ClApc-(D)Phe-Arg-Trp-Lys-NH2 | 12%
3 | Penta-cyclo(Glu-Lys)-Glu-Apc-(D)Phe-Arg-Trp-Lys-NH2 | 15%
4 | Penta-cyclo(Asp-Lys)-Asp-4-PhOAppc-(D)Phe-Arg-Trp-Lys-NH2 | 13%
5 | Penta-cyclo(Asp-Lys)-Asp-4-MeAppc-(D)Phe-Arg-Trp-Lys-NH2 | 14%
6 | Ac-Nle-cyclo(Cys-Cys)-Cys-Apc-(D)Phe-Arg-Trp-Cys-NH2 | 4.7%
7 | Cyclo(maleic acid-Dpr)-maleic acid-Apc-(D)Phe-Arg-Trp-Dpr-NH2 | 8%
8 | Ac-cyclo(Asp-Dpr)-Asp-Apc-(D)Phe-Arg-Trp-Dpr-NH2 | 8%
9 | Penta-cyclo(Asp-Dpr)-Asp-Apc-(D)Phe-Arg-Trp-Dpr-NH2 | 8%
10 | Penta-cyclo(Asp-Lys)-Asp-Apc-(D)Phe-Cit-Trp-Lys-NH2 | 20%
11 | Cyclo(phthalic acid-Dpr)-phthalic acid-Apc-(D)Phe-Arg-Trp-Dpr-NH2 | 8%
12 | Penta-cyclo(Asp-Lys)-Asp-4-ClAppc-(D)Phe-Arg-Trp-Lys-NH2 | 14%
13 | Penta-cyclo(Asp-Orn)-Asp-Apc-(D)Phe-Arg-Trp-Orn-NH2 | 13%
14 | Penta-cyclo(Asp-Lys)-Asp-2-iPrAppc-(D)Phe-Arg-Trp-Lys-NH2 | 14%
15 | Cyclo(succinic acid-Dpr)-succinic acid-Apc-(D)Phe-Arg-Trp-Dpr-NH2 | 8%
16 | Penta-cyclo(Asp-Lys)-Asp-Apc-(D)Phe-Ala-Trp-Lys-NH2 | 20%
17 | Penta-cyclo(Asp-Dbr)-Asp-Apc-(D)Phe-Arg-Trp-Dbr-NH2 | 9%/o
18 | Penta-cyclo(Asp-Lys)-Asp-Abc-(D) Phe-Arg-Trp-Lys-NH2 | 14%
19 | Penta-cyclo(Asp-Lys)-Asp-4-MeApc-(D)Phe-Arg-Trp-Lys-NH2 | 14%
20 | Penta-cyclo(Asp-Lys)-Asp-2-MeAppc-(D)Phe-Arg-Trp-Lys-NH2 | 15%
21 | Penta-cyclo(Cys-Cys)-Cys-5-Br(D,L)Atc-(D)Phe-Arg-Trp-Cys-NH2 | 5.2%
22 | Penta-cyclo(Asp-Lys)-Asp-Appc-(D)Phe-Arg-Trp-Lys-NH2 | 14%
23 | Penta-cyclo(Asp-Lys)-Asp-Apc-(D)Phe-Arg-(2S,3S) beta methyl-Trp-Lys-NH2 | 10%
24 | Penta-cyclo(Asp-Lys)-Asp-Achc-(D)Phe-Arg-Trp-Lys-NH2 | 13%
25 | Penta-cyclo(Asp-Lys)-Asp-3-MeOApc-(D)Phe-Arg-Trp-Lys-NH2 | 12%
26 | Ac-Nle-cyclo(Cys-Cys)-Cys-(D,L)Atc-(D)Phe-Arg-Trp-Cys-NH2 | 5.0%
27 | Penta-cyclo(Asp-Lys)-Asp-4-Adpc-(D)Phe-Arg-Trp-Lys-NH2 | 11%

Same assay, conditions: whole synthesis, scale 0.4 mmol

Row | Substance | isolated mass | isolated yield | crude mass
28 | Penta-cyclo(Asp-Lys)-Asp-Apc-(D)Phe-Arg-(2)Nal-Lys-NH2 | 55 mg | 14% | 
29 | Penta-cyclo(Asp-Lys)-Asp-4-iPrOApc-(D)Phe-Arg-Trp-Lys-NH2 | 63 mg | 15% | 
30 | Penta-cyclo(Asp-Lys)-Asp-4-EtOApc-(D)Phe-Arg-Trp-Lys-NH2 | 60 mg | 14% | 
31 | Penta-cyclo(Asp-Lys)-Asp-4-MeOApc-(D)Phe-Arg-Trp-Lys-NH2 | 49 mg | 12% | 
32 | Penta-cyclo(Asp-Lys)-Asp-4-MeAppc-(D)Phe-Arg-Trp-Lys-NH2 |  |  | 254 mg
33 | Penta-cyclo(Asp-Lys)-Asp-Apc-(D)Phe-Arg-Trp-Lys-NH2 | 53 mg | 13% | 
34 | Penta-cyclo(Asp-Lys)-Asp-Apc-(D)Phe-Arg-N-methyl(2)Nal-Lys-NH2 | 43 mg | 10% | 
35 | Ac-Nle-Cyclo(Asp-Lys)-Asp-His-(D)Phe-Arg-Trp-Lys-NH2 | 60 mg | 15% | 
36 | Penta-cyclo(Asp-Lys)-Asp-4-OHApc-(D)Phe-Arg-Trp-Lys-NH2 | 55 mg | 13% | 
37 | Cyclo(phthalic acid-Lys)-phthalic acid-Apc-(D)Phe-Arg-Tip-Lys-NH2 | 35 mg | 10% | 220 mg
38 | Cyclo(maleic acid-Lys)-maleic acid-Apc-(D)Phe-Arg-Trp-Lys-NH2 | 38 mg | 11% | 230 mg
39 | Cyclo(succinic acid-Lys)-succinic acid-Apc-(D)Phe-Arg-Trp-Lys-NH2 | 40 mg | 11% | 220 mg

Same assay, conditions: whole synthesis, side-chain lactam ring, sequence written open

Row | Substance | isolated yield
40 | Penta-(Asp-Lys)-Asp-5-BrAtc-(D)Phe-Arg-Trp-Lys-NH2 | 6%
41 | Penta-(Asp-Lys)-Asp-5-MeO-(D,L)Atc-(D)Phe-Arg-Trp-Lys-NH2 | 13%
42 | Penta-(Asp-Lys)-Asp-5-ClAtc-(D)Phe-Arg-Trp-Lys-NH2 (peak 2) | 4%
43 | Penta-(Asp-Lys)-Asp-5-iPrO-(D,L)Atc-(D)Phe-Arg-Trp-Lys-NH2 | 13%
44 | Penta-(Asp-Lys)-Asp-5-BrAtc-(D)Phe-Arg-Trp-Lys-NH2 (peak 2) | 5%
45 | Penta-(Asp-Lys)-Asp-5-ClAtc-(D)Phe-Arg-Trp-Lys-NH2 (peak 1) | 6%
46 | Penta-(Asp-Lys)-Asp-5-ClAtc-(D)Phe-Cit-Trp-Lys-NH2 (peak 1) | 5.8%
47 | Penta-(Asp-Lys)-Asp-5-ClAtc-(D)Phe-Cit-Trp-Lys-NH2 (peak 2) | 5.4%
48 | Penta-(Asp-Lys)-Asp-5-BrAtc-(D)Phe-Cit-Trp-Lys-NH2 (peak 1) | 5,6%
49 | Penta-(Asp-Lys)-Asp-5-Me-(D,L)Atc-(D)Phe-Arg-Trp-Lys-NH2 | 13%
50 | Penta-(Asp-Lys)-Asp-5-EtO-(D,L)Atc-(D)Phe-Arg-Trp-Lys-NH2 | 13%
51 | Penta-(Asp-Lys)-Asp-3-MeO-Appc-(D)Phe-Arg-Trp-Lys-NH2 | 13%
52 | Penta-(Asp-Lys)-Asp-5-iPr-(D,L)Atc-(D)Phe-Arg-Trp-Lys-NH2 | 13%
53 | Penta-(Asp-Lys)-Asp-5-Et-(D,L)Atc-(D)Phe-Arg-Trp-Lys-NH2 | 12%
54 | Penta-(Asp-Lys)-Asp-5-BrAtc-(D)Phe-Cit-Trp-Lys-NH2 (peak 2) | 4.8%
